Measurements published in PubChem BioAssay AID2685 (National Center for Advancing Translational Sciences (NCATS), 2010).
The list shows a part of the results. Shown are side measurements of this screen, not its main read-out; they come without a call. The list favours compounds with an active or inconclusive main result. The note in brackets gives the kind of curve behind each potency; many fits are weak.

Assay: qHTS Assay for Lipid Storage Modulators in Drosophila S3 Cells;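 on cell number change: cells counted by Cell Tracker Red CMTPX staining in the red channel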
Settings: BODIPY lipid droplet fluorescence, 18-24 h; for cell number change: measured here: cell count max response, cells fed with added oleic acid
Outline: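 Laser-scanning cytometry quantifies lipid droplet accumulation (500–530 nm total intensity; droplet/cell object ratio) in oleic acid-fed (400 uM added) Drosophila S3 cells treated with a concentration series. 20 uM Triacsin C defined 100% inhibition.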

[1] = measured here: lipid fluorescence (Fed channel) AC50, cells fed with added oleic acid
[2] = measured here: cell number channel AC50, cells fed with added oleic acid

Row | SMILES | cell number change [%] | AC50 [1] | AC50 [2]
1 | CCOC(=O)N1CCC(N2Cc3cccc(C(=O)Nc4ccc(N(CC)CC)cc4C)c3C2=O)CC1 | -9.79 | 1.84 µM [rising, partial curve, poor fit] | –
2 | O=C(NCCCn1ccnc1)c1ccc(N2CCCCC2)c([N+](=O)[O-])c1 | 110 | – | 23.1 µM [rising, single point]
3 | CC(C)c1nnc(NC(=O)c2c(O)c3cccc4c3n(c2=O)CCC4)s1 | -7.84 | 0.731 µM [falling, full curve, poor fit] | –
4 | Cc1csc(SCc2c(C(=O)O)oc3ccccc23)n1 | 5.39 | – | –
5 | OCCNCCCCCOc1ccc(F)cc1 | 1.16 | – | –
6 | CC(=O)Oc1ccc(C23CC4CC(CC(C4)C2)C3)cc1C(=O)O | 47.2 | 29.1 µM [rising, single point] | 29.1 µM [rising, single point]
7 | Cc1cc(=O)oc2cc(NC(=O)c3cccc(S(C)(=O)=O)c3)ccc12 | 2.63 | – | –
8 | O=S(=O)(c1ccccc1)[C@@]1(c2ccccc2)C[C@@H]2ON=C(c3cccc(Br)c3)[C@@H]2C1 | -29.9 | – | –
9 | Cc1ccc(NC(=O)C(C)N2C(=O)c3ccccc3C2=O)c(C)c1 (stereo not drawn) | -23.6 | – | –
10 | COc1cccc(CN2CC(C(=O)NCCc3ccc(C)s3)CCC2=O)c1 (stereo not drawn) | 17 | – | 2.31 µM [rising, partial curve, poor fit]
11 | Cc1noc(C)c1C(=O)OCC(=O)c1c[nH]c2ccccc12 | -2.38 | 0.58 µM [rising, full curve, poor fit] | –
12 | CCOc1cccc(-c2nnc3sc(COc4ccc(Cl)cc4)nn23)c1 | -4.33 | – | –
13 | COc1ccc(CCNC(=O)CCn2c(=O)oc3ccccc32)cc1OC | – | 2.31 µM [falling, partial curve] | –
14 | CCOC(=O)C1CCCN(CC(=O)Nc2c(C(=O)OC)[nH]c3ccc(Cl)cc23)C1 (stereo not drawn) | -27.4 | 3.26 µM [rising, partial curve] | –
15 | COC(=O)CC1C(=O)NC(C)=C1C(=O)OC (stereo not drawn) | -21.2 | 1.46 µM [falling, full curve] | –
16 | O=S(=O)(c1cc(F)ccc1F)N1CCN(c2ccccn2)CC1 | 18.2 | 0.58 µM [rising, single point] | –
17 | CCOC(=O)c1ccc(NCCOC)c([N+](=O)[O-])c1 | 5.46 | – | 6.51 µM [rising, single point]
18 | Cc1nn(-c2ccccc2)c(Cl)c1C(=O)NCc1ccccc1F | 12.2 | 29.1 µM [rising, single point] | –
19 | CCOC(=O)C1CCN(C(=O)COC(=O)c2ccc(Br)o2)CC1 | 2.55 | 0.58 µM [rising, full curve] | –

Taken from above:
Under AC50 [2], `CCOC(=O)c1ccc(NCCOC)c([N+](=O)[O-])c1` has the entry 6.51 µM [rising, single point]
Under AC50 [1], `CCOC(=O)C1CCN(C(=O)COC(=O)c2ccc(Br)o2)CC1` has the entry 0.58 µM [rising, full curve]

(next part)

Row | SMILES | cell number change [%] | AC50 [1] | AC50 [2]
20 | Cc1cccc(NC(=O)CN2C(=O)NC(C)(c3ccc4c(c3)OCO4)C2=O)c1 (stereo not drawn) | 61.9 | – | 16.4 µM [rising, partial curve]
21 | COc1ccc(N2CCN(C(=O)COc3cccc4ccccc34)CC2)cc1 | 24.3 | 3.26 µM [rising, full curve, poor fit] | –
22 | O=C(CN1CCN(c2ccc(O)cc2)CC1)N(C1CC1)C1CCS(=O)(=O)C1 (stereo not drawn) | -2.53 | 0.164 µM [falling, full curve, poor fit] | –
23 | COc1ccc(CC(=O)NCc2nnc(SCc3ccc([N+](=O)[O-])cc3)n2C)cc1 | 33.8 | 29.1 µM [rising, single point] | 29.1 µM [rising, single point]
24 | O=C(OCC(=O)N(Cc1ccccc1)C1CCS(=O)(=O)C1)c1cc2c(s1)CCCC2 (stereo not drawn) | -16 | 0.00461 µM [rising, full curve, poor fit] | –
25 | O=C(NCC(c1ccco1)N1CCc2ccccc2C1)c1c(F)cccc1F (stereo not drawn) | -5.32 | 0.0082 µM [falling, full curve, poor fit] | –
26 | CCOc1cc(/C=C2\CCC/C(=C\c3cc(Cl)c(O)c(OCC)c3)C2=O)cc(Cl)c1O | -33 | 10.3 µM [falling, partial curve] | 7.31 µM [falling, partial curve, poor fit]
27 | COc1ccccc1NC(=S)NC(=O)/C=C/c1ccco1 | -50 | 5.8 µM [rising, partial curve] | 0.00461 µM [falling, full curve, poor fit]
28 | Cc1ccc(C(=O)c2c(NC(=O)c3ccccc3C)sc(C)c2C)cc1 | 119 | 8.2 µM [rising, partial curve] | 16.4 µM [rising, partial curve]
29 | COC(=O)c1cc(N=Cc2c(O)c3ccccc3oc2=O)cc(C(=O)OC)c1 | -25.4 | 3.66 µM [falling, full curve, poor fit] | –
30 | CCCCN(CCCC)S(=O)(=O)c1ccc(C(=O)Nc2nnc(CSC)o2)cc1 | 8.23 | – | –
31 | C=CCNC(=S)NNC(=O)c1cccn(Cc2ccc(Cl)c(Cl)c2)c1=O | 2.65 | 1.3 µM [falling, full curve] | 0.651 µM [falling, full curve, poor fit]
32 | CCCc1nc(SCC(=O)Nc2ccccc2)c2c(=O)n(C)c(=O)n(C)c2n1 | 60.3 | 14.6 µM [rising, partial curve, poor fit] | 0.146 µM [rising, full curve, poor fit]
33 | Cc1cc(SCc2ccc(C(F)(F)F)cc2)nc(=O)[nH]1 | – | 29.1 µM [rising, single point] | –
34 | COc1ccc(N2C(=O)CSC2c2ccc(F)c(F)c2)cc1 (stereo not drawn) | 57.7 | – | 13 µM [rising, partial curve, poor fit]
35 | COc1ccc(OCCNC(=O)c2cc(C3CC3)nc3c2cnn3C(C)C)cc1 | 11.1 | 32.6 µM [falling, single point] | –
36 | CCN(CC(=O)Nc1cc(C)nn1-c1nc(C)cc(C)n1)Cc1ccccc1 | 144 | 2.59 µM [rising, partial curve] | 10.3 µM [rising, partial curve]
37 | NC(=O)C1CCN(Cc2cccc(OCc3ccccc3)c2)CC1 | 17.1 | 0.058 µM [rising, full curve, poor fit] | –
